According to paper PMC4899725, “The transcriptional regulator GalR self-assembles to form highly regular tubular structures” (Scientific Reports, 2016):
Where a chain is given by its changes, count along the chain named. Numbers in names are those of the source. Results are given in words; binding and its absence hold for the method and conditions named. Some entries that bind do so weakly or less than the wild type. Sequences can lack the tags named with a protein. Each block holds one binder with its values, some of them ahead of it.

Tests used:
[1] = molecular target: GalR^T322R, hexahistidine-tagged (Escherichia coli) (UniProt P03024); assay: light scattering; 2 uM GalR diluted from a stock in 1 M NaCl into 50 mM TrisCl pH 8 with 78-1000 mM NaCl (or 25-700 mM Na2SO4 with 78 mM NaCl); 365 nm, stirring, room temperature; dimers to aggregates at low ionic strength; both purified
[2] = molecular target: GalR^N48I, hexahistidine-tagged (Escherichia coli) (UniProt P03024); assay: as above
[3] = molecular target: GalR^Y244F, hexahistidine-tagged (Escherichia coli) (UniProt P03024); assay: negative staining transmission electron microscopy; data not shown; GalR^Y244F aggregates; both purified
[4] = molecular target: GalR^Y244F, hexahistidine-tagged (Escherichia coli) (UniProt P03024); assay: light scattering; 2 uM GalR diluted from a stock in 1 M NaCl into 50 mM TrisCl pH 8 with 78-1000 mM NaCl (or 25-700 mM Na2SO4 with 78 mM NaCl); 365 nm, stirring, room temperature; dimers to aggregates at low ionic strength; both purified

- binding [1]: binds weakly
B1: GalR^T322R, hexahistidine-tagged (natural protein, Escherichia coli, UniProt P03024 1-343, looked up)
chain: MATIKDVARLAGVSVATVSRVINNSPKASEASRLAVHSAMESLSYHPNANARALAQQTTETVGLVVGDVSDPFFGAMVKAVEQVAYHTGNFLLIGNGYHNEQKERQAIEQLIRHRCAALVVHAKMIPDADLASLMKQMPGMVLINRILPGFENRCIALDDRYGAWLATRHLIQQGHTRIGYLCSNHSISDAEDRLQGYYDALAESGIAANDRLVTFGEPDESGGEQAMTELLGRGRNFTAVACYNDSMAAGAMGVLNDNGIDVPGEISLIGFDDVLVSRYVRPRLTTVRYPIVTMATQAAELALALADNRPLPEITNVFSPRLVRRHSVSTPSLEASHHATSD
notes: GalR of Escherichia coli with T322R; Tetramer formation is strongly impaired in this mutant (cited); also called non-tetramerizing GalR mutant; source: expressed from vector plasmid pSEM1026 under an L-arabinose inducible promoter, purified

- binding [2]: binds weakly
B2: GalR^N48I, hexahistidine-tagged (natural protein, Escherichia coli, UniProt P03024 1-343, looked up)
chain: B1 chain with N48I, R322T
notes: GalR of Escherichia coli with N48I; source: expressed from vector plasmid pSEM1026 under an L-arabinose inducible promoter, purified

- binding [3]: binds
- binding [4]: binds
B3: GalR^Y244F, hexahistidine-tagged (protein, UniProt P03024 1-343)
chain: B1 chain with Y244F, R322T
